PMC12240770

What was measured:
[1] = target: Flag-FTO N-terminal fragment (FTO-N) (mouse); assay: co-IP; HEK293T transfected with Flag-Fto constructs for 48 h (with HA-K48 and Myc-Ogt WT or K908A in Figure 6I); IP with anti-Flag; immunoblot for OGT or TRIM21 for which the legend names no plasmid
[2] = target: Flag-FTO C-terminal fragment (FTO-C) (mouse); assay: as above

B1: OGT detected with anti-OGT in HEK293T cells transfected with Flag-Fto constructs only (enzyme, UniProt O15294 1-1046)
chain: MASSVGNVADSTEPTKRMLSFQGLAELAHREYQAGDFEAAERHCMQLWRQEPDNTGVLLLLSSIHFQCRRLDRSAHFSTLAIKQNPLLAEAYSNLGNVYKERGQLQEAIEHYRHALRLKPDFIDGYINLAAALVAAGDMEGAVQAYVSALQYNPDLYCVRSDLGNLLKALGRLEEAKACYLKAIETQPNFAVAWSNLGCVFNAQGEIWLAIHHFEKAVTLDPNFLDAYINLGNVLKEARIFDRAVAAYLRALSLSPNHAVVHGNLACVYYEQGLIDLAIDTYRRAIELQPHFPDAYCNLANALKEKGSVAEAEDCYNTALRLCPTHADSLNNLANIKREQGNIEEAVRLYRKALEVFPEFAAAHSNLASVLQQQGKLQEALMHYKEAIRISPTFADAYSNMGNTLKEMQDVQGALQCYTRAIQINPAFADAHSNLASIHKDSGNIPEAIASYRTALKLKPDFPDAYCNLAHCLQIVCDWTDYDERMKKLVSIVADQLEKNRLPSVHPHHSMLYPLSHGFRKAIAERHGNLCLDKINVLHKPPYEHPKDLKLSDGRLRVGYVSSDFGNHPTSHLMQSIPGMHNPDKFEVFCYALSPDDGTNFRVKVMAEANHFIDLSQIPCNGKAADRIHQDGIHILVNMNGYTKGARNELFALRPAPIQAMWLGYPGTSGALFMDYIITDQETSPAEVAEQYSEKLAYMPHTFFIGDHANMFPHLKKKAVIDFKSNGHIYDNRIVLNGIDLKAFLDSLPDVKIVKMKCPDGGDNADSSNTALNMPVIPMNTIAEAVIEMINRGQIQITINGFSISNGLATTQINNKAATGEEVPRTIIVTTRSQYGLPEDAIVYCNFNQLYKIDPSTLQMWANILKRVPNSVLWLLRFPAVGEPNIQQYAQNMGLPQNRIIFSPVAPKEEHVRRGQLADVCLDTPLCNGHTTGMDVLWAGTPMVTMPGETLASRVAASQLTCLGCLELIAKNRQEYEDIAVKLGTDLEYLKKVRGKVWKQRISSPLFNTKQYTMELERLYLQMWEHYAAGNKPDHMIKPVEVTESA
binding [1]: binds | binding [2]: no binding

These are yes or no findings as the source states them, for the method shown. Binding seen in cells or lysates may run through a third protein. For some assays here: Binding can be weak; no strength is given. Sequences can lack the tags named with a protein.
